Results reported in the supplement of paper PMC12819154, “High-throughput peptide-centric local stability assay extends protein–ligand identification to membrane proteins, tissues and bacteria” (Nature Structural & Molecular Biology, 2025).
Some of the results follow. Most entries show no effect beyond the scatter of the controls.

Sequences of proteins named here, by UniProt entry; tags and fusion partners are left off. A change or cut given only in a name is not applied to a line headed by its entry.
UniProt O43299: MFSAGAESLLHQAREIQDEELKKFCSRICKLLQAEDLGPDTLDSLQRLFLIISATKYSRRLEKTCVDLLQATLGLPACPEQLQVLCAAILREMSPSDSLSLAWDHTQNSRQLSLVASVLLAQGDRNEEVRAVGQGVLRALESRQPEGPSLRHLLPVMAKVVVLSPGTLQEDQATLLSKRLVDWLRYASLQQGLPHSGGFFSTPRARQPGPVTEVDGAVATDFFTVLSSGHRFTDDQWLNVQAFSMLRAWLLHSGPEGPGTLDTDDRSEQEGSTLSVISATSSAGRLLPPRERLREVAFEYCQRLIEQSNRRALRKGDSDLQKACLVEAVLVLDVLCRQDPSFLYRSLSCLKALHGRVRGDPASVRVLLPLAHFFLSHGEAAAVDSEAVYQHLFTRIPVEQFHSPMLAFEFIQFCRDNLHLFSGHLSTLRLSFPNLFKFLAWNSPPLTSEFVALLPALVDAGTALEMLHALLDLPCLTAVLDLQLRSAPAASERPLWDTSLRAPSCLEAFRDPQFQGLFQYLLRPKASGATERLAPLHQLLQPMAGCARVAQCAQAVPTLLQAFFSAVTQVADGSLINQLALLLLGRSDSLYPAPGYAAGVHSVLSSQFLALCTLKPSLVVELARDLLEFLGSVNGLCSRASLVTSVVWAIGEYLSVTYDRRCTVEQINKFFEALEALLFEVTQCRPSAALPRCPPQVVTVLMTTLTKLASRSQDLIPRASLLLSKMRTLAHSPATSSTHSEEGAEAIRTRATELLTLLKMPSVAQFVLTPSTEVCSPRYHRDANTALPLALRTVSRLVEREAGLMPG
UniProt O43809, whole entry: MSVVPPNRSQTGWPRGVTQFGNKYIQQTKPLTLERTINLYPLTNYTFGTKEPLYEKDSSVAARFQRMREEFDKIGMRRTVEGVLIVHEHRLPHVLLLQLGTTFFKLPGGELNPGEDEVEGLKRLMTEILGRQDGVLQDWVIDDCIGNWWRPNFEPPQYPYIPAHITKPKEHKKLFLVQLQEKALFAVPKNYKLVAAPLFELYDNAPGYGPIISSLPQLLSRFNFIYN
UniProt O75175, whole entry: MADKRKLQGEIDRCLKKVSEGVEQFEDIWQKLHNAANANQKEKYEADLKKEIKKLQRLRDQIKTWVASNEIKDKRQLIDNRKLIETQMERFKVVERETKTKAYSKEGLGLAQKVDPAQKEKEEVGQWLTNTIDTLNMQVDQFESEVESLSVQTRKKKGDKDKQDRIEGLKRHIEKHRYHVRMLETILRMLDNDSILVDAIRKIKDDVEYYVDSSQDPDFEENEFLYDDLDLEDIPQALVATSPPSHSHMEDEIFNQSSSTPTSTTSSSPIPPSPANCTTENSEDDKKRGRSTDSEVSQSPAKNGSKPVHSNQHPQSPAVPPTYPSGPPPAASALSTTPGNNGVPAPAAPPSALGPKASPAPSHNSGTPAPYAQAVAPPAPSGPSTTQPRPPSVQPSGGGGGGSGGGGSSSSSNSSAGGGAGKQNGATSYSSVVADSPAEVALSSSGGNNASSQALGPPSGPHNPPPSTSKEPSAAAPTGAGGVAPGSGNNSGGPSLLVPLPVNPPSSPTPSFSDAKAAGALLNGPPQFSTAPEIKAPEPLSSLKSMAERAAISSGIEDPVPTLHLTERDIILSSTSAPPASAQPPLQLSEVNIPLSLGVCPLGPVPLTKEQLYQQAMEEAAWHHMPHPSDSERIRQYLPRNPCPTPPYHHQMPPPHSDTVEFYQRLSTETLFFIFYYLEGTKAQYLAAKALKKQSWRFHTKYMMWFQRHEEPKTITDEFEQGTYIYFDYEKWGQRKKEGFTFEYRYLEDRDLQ
UniProt O60443: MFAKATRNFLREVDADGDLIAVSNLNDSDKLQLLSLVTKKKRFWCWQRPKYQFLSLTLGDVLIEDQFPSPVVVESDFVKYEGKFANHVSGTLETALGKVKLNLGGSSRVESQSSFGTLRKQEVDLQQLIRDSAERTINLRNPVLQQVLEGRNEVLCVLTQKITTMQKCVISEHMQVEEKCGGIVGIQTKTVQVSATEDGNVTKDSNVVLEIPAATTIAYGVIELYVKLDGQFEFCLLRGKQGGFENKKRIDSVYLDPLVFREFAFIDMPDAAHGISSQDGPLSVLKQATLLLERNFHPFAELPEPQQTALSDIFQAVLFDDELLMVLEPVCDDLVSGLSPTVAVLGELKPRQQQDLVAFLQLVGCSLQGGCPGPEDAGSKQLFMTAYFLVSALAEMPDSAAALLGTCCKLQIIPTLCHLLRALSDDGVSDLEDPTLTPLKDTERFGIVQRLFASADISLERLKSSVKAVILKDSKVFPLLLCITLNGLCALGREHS
UniProt O43822: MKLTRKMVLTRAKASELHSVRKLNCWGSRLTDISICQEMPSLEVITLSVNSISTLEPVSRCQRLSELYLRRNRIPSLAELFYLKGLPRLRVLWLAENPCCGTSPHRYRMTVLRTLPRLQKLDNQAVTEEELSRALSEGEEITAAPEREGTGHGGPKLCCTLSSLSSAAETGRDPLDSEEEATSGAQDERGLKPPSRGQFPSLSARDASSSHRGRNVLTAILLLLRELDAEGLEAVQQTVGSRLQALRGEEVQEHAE
UniProt O60524: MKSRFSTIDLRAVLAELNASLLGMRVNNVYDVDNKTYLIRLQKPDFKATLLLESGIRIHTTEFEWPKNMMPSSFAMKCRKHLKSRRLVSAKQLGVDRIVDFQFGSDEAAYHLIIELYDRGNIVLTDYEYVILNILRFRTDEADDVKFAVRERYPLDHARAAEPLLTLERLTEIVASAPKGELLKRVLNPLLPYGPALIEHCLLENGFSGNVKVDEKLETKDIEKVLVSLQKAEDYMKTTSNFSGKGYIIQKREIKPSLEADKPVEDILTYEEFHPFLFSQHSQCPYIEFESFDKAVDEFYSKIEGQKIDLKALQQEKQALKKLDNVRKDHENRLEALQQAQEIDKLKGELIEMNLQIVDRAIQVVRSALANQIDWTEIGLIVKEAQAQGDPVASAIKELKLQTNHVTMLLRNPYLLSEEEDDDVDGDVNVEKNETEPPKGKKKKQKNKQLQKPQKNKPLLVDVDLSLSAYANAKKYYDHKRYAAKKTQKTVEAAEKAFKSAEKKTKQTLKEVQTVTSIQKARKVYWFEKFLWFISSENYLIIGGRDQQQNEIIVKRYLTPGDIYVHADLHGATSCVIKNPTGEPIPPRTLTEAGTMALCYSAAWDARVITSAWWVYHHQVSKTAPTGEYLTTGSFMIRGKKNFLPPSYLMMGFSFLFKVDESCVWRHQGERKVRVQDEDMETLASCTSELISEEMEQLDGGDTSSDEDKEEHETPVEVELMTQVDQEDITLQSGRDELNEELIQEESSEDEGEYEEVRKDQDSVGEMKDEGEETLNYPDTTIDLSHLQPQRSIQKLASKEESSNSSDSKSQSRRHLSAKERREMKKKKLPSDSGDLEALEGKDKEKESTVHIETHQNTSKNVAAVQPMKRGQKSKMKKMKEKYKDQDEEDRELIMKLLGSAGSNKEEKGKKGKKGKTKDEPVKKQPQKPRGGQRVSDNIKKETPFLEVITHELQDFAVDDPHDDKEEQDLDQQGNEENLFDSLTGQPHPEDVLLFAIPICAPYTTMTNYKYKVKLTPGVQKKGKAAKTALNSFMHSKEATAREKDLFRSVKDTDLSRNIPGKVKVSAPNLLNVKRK
UniProt O43427: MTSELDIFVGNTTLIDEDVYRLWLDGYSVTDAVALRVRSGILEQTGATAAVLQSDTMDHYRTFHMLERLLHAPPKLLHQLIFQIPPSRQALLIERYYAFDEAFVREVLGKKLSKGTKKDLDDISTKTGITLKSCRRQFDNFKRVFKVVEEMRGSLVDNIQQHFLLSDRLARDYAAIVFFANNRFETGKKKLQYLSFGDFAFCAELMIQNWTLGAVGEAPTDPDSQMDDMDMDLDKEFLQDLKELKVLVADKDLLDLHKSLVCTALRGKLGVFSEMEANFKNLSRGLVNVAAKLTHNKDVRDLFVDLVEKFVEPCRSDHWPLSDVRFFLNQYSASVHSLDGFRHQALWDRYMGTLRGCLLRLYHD
UniProt O43399: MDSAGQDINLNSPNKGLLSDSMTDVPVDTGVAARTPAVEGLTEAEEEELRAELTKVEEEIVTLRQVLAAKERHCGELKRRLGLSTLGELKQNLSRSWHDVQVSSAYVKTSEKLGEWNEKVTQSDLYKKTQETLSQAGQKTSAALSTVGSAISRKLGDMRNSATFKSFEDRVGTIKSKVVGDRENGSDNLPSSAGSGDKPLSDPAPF
UniProt O43447: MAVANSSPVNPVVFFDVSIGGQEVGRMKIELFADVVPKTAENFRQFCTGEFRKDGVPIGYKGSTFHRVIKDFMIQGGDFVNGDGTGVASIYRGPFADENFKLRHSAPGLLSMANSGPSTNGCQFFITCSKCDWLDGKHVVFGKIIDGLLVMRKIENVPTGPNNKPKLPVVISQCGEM
UniProt O43312: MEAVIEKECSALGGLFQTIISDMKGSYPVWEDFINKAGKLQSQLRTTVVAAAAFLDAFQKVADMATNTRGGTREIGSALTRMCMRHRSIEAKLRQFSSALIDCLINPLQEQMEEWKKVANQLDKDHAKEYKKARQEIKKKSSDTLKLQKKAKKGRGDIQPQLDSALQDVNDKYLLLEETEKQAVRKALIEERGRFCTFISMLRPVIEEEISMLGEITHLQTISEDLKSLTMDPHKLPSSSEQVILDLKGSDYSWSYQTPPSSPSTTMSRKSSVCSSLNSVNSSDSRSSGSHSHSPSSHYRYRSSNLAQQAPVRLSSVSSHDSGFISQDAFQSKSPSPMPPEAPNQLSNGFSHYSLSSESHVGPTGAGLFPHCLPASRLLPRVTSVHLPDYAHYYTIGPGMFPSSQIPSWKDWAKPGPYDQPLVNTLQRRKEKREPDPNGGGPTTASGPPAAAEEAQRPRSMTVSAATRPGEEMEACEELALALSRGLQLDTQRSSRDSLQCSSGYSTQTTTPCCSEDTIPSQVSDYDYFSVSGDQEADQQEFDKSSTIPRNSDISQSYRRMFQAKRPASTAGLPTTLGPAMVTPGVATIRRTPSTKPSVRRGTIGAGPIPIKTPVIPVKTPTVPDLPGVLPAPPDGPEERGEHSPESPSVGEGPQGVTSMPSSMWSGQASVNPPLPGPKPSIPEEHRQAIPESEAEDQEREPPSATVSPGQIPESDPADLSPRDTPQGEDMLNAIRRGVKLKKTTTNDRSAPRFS
UniProt O43488: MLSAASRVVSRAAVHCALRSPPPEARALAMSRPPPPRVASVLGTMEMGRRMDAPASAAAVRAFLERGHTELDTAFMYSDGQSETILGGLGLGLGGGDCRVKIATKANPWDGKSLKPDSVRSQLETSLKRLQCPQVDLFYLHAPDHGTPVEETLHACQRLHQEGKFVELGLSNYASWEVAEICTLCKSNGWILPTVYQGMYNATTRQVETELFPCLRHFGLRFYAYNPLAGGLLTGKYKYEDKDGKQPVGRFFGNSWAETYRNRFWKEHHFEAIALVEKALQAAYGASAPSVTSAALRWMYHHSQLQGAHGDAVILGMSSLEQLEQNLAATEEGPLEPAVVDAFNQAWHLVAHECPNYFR
UniProt O60613, whole entry: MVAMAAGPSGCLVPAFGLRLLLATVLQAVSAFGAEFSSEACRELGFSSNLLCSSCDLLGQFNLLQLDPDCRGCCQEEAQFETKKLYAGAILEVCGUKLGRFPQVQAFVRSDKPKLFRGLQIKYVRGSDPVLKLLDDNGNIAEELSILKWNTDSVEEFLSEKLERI
UniProt O43542: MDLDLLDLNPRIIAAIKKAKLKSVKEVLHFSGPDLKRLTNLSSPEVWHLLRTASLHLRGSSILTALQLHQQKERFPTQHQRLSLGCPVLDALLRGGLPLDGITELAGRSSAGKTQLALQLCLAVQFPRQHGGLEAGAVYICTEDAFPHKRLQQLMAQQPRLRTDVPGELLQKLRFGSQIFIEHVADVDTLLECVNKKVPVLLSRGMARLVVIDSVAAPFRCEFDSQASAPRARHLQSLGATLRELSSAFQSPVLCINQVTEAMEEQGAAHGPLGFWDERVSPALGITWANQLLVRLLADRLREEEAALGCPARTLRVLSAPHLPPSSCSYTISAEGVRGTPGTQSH
UniProt O43175: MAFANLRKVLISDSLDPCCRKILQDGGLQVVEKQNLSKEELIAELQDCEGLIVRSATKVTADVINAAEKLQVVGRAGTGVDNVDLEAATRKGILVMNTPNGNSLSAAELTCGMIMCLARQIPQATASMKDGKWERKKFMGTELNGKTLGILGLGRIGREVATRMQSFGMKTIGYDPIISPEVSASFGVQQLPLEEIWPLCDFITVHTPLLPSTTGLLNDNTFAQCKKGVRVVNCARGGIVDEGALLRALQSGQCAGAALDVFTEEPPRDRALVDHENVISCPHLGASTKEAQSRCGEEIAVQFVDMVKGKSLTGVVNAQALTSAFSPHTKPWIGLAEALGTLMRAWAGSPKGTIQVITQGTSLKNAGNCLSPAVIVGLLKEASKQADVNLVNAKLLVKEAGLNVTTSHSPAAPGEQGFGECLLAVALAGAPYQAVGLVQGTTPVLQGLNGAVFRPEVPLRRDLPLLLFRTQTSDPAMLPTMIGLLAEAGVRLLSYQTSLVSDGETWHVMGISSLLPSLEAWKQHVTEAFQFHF

Compound: Cc1nc(Nc2ncc(C(=O)Nc3c(C)cccc3Cl)s2)cc(N2CCN(CCO)CC2)n1 [dasatinib]
Assay: log2 fold change of tryptic peptide abundance, ligand vs vehicle (limited proteolysis) (log2 ratio); higher = more trypsin-susceptible (destabilized)
Conditions: ligand concentration: 5 uM; sample: K562 cleared lysate

| Target | log2 fold change |
| --- | --- |
| ULK1 (peptide sequence: LHSAPNLSDLHVVRPK, peptide start residue: 554) (UniProt O75385) | -0.462 |
| UniProt O43299 (peptide sequence: LREVAFEYCQR, peptide start residue: 293) | 0.398 |
| PPFIA3 (peptide sequence: MNDDHNKR, peptide start residue: 422) (UniProt O75145) | 0.688 |
| CHST10 (peptide sequence: HEIAPGIIR, peptide start residue: 215) (UniProt O43529) | -0.512 |
| EIF5B (peptide sequence: KNTKDEFEER, peptide start residue: 781) (UniProt O60841) | 0.107 |
| PIP5K1C (peptide sequence: KAAPTEVLSMTAQPGPGHGK, peptide start residue: 37) (UniProt O60331) | -0.166 |
| NUDT21 (peptide sequence: YIQQTKPLTLER, peptide start residue: 24) (UniProt O43809) | -0.153 |
| CNOT3 (peptide sequence: KKEGFTFEYR, peptide start residue: 736) (UniProt O75175) | -0.444 |
| UniProt O60861 (peptide sequence: TEEDIKK, peptide start residue: 365) | 0.0731 |
| UniProt O75072 (peptide sequence: NGAGLSK, peptide start residue: 36) | 0.0272 |
| PPP1R11 (peptide sequence: KVEWTSDTVDNEHMGR, peptide start residue: 40) (UniProt O60927) | 0.0478 |
| SIN3B (peptide sequence: EKGSDPAMELR, peptide start residue: 825) (UniProt O75182) | 0.593 |
| DNAJC6 (peptide sequence: ILEWIEGK, peptide start residue: 822) (UniProt O75061) | -0.349 |
| UniProt O60443 (peptide sequence: CGGIVGIQTK, peptide start residue: 180) | -0.141 |
| UniProt O43930 (peptide sequence: VMSIPDVIR, peptide start residue: 79) | 0.0855 |
| RNMT (peptide sequence: KEFEDDLVK, peptide start residue: 60) (UniProt O43148) | 0.385 |
| CFAP410 (peptide sequence: LSELYLR, peptide start residue: 64) (UniProt O43822) | 0.182 |
| RNF40 (peptide sequence: AKAEVDELR, peptide start residue: 696) (UniProt O75150) | 0.149 |
| DHX16 (peptide sequence: LRDTDTLDLSGPARDFALR, peptide start residue: 47) (UniProt O60231) | 0.514 |

Reprinted from the listing for reference:

| Target | log2 fold change |
| --- | --- |
| SIN3B (peptide sequence: EKGSDPAMELR, peptide start residue: 825) (UniProt O75182) | 0.593 |
| DNAJC6 (peptide sequence: ILEWIEGK, peptide start residue: 822) (UniProt O75061) | -0.349 |

Next part:

| Target | log2 fold change |
| --- | --- |
| UniProt O60524 (peptide sequence: LASKEESSNSSDSK, peptide start residue: 796) | 0.231 |
| UniProt O43361 (peptide sequence: KSHLVQHQK, peptide start residue: 450) | -0.152 |
| SPAG7 (peptide sequence: FQPMNKIER, peptide start residue: 70) (UniProt O75391) | 0.414 |
| FIBP (peptide sequence: TFHMLER, peptide start residue: 62) (UniProt O43427) | -0.138 |
| TPD52L2 (peptide sequence: AELTKVEEEIVTLR, peptide start residue: 51) (UniProt O43399) | 0.194 |
| RRP9 (peptide sequence: LKEDVLEQR, peptide start residue: 112) (UniProt O43818) | 0.18 |
| PPIH (peptide sequence: GPFADENFK, peptide start residue: 93) (UniProt O43447) | 0.564 |
| NME2P1 (peptide sequence: QHYIDLKDRPFFPGLVK, peptide start residue: 50) (UniProt O60361) | -0.288 |
| MTSS1 (peptide sequence: VADMATNTR, peptide start residue: 60) (UniProt O43312) | -0.302 |
| ZZEF1 (peptide sequence: AVQGAELSEAGNGKR, peptide start residue: 1994) (UniProt O43149) | -0.424 |
| AKR7A2 (peptide sequence: AAVHCALR, peptide start residue: 12) (UniProt O43488) | 0.52 |
| UniProt O60613 (peptide sequence: FPQVQAFVR, peptide start residue: 101) | 0.134 |
| XRCC3 (peptide sequence: LVVIDSVAAPFR, peptide start residue: 209) (UniProt O43542) | 0.205 |
| PHGDH (peptide sequence: KILQDGGLQVVEK, peptide start residue: 21) (UniProt O43175) | -0.132 |
| KIAA0556 (peptide sequence: VLQAVESDSAHLGR, peptide start residue: 437) (UniProt O60303) | -0.217 |
| HTATSF1 (peptide sequence: TAEEPPQEKAPEPTDAR, peptide start residue: 96) (UniProt O43719) | 0.191 |
| ZNF217 (peptide sequence: TGCPPALLGK, peptide start residue: 754) (UniProt O75362) | -0.364 |
| KIAA0513 (peptide sequence: KLCNDFLK, peptide start residue: 378) (UniProt O60268) | 0.486 |
| ZNF292 (peptide sequence: KNNLENKNAK, peptide start residue: 2338) (UniProt O60281) | 0.159 |
